Some of the results follow.
Assays:
Test in all cases: glycan array binding signal (z-score within array); higher = stronger binding
Conditions in all cases: glycan notation: IUPAC condensed, linker removed
Fuc(a1-2)Gal = target: Fuc(a1-2)Gal
Outline: (§1)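 Glycan array binding is given as a within-array Z-score, which can be read as non-binding when negative. The arrays, 3228 of them, came from the Consortium for Functional Glycomics database and were retained only where the protein sequence was available. Z-scores were averaged across arrays of the same protein sequence at different concentrations or buffers and across linkers.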

Fuc(a1-2)Gal(b1-3)GalNAc = target: Fuc(a1-2)Gal(b1-3)GalNAc
Outline: as §1

[1] = target: Fuc(a1-2)Gal(b1-3)GalNAc(a1-3)[Fuc(a1-2)]Gal(b1-4)Glc
Outline: as §1

[2] = target: Fuc(a1-2)Gal(b1-3)GalNAc(a1-3)[Fuc(a1-2)]Gal(b1-4)GlcNAc
Outline: as §1

[3] = target: Fuc(a1-2)Gal(b1-3)GalNAc(b1-3)Gal
Outline: as §1

[4] = target: Fuc(a1-2)Gal(b1-3)GalNAc(b1-3)Gal(a1-4)Gal(b1-4)Glc
Outline: as §1

[5] = target: Fuc(a1-2)Gal(b1-3)GalNAc(b1-4)[Neu5Ac(a2-3)]Gal(b1-4)Glc
Outline: as §1

Fuc(a1-2)Gal(b1-3)GlcNAc = target: Fuc(a1-2)Gal(b1-3)GlcNAc
Outline: as §1

[6] = target: Fuc(a1-2)Gal(b1-3)GlcNAc(b1-2)Man(a1-3)[Fuc(a1-2)Gal(b1-3)GlcNAc(b1-2)Man(a1-6)]Man(b1-4)GlcNAc(b1-4)GlcNAc
Outline: as §1

[7] = target: Fuc(a1-2)Gal(b1-3)GlcNAc(b1-2)Man(a1-3)[Fuc(a1-2)Gal(b1-3)GlcNAc(b1-2)Man(a1-6)]Man(b1-4)GlcNAc(b1-4)[Fuc(a1-6)]GlcNAc
Outline: as §1

[8] = target: Fuc(a1-2)Gal(b1-3)GlcNAc(b1-3)Gal(b1-4)Glc
Outline: as §1

[9] = target: Fuc(a1-2)Gal(b1-3)GlcNAc(b1-3)GalNAc
Outline: as §1

[10] = target: Fuc(a1-2)Gal(b1-3)GlcNAc(b1-3)[Fuc(a1-2)Gal(b1-3)GlcNAc(b1-6)]GalNAc
Outline: as §1

[11] = target: Fuc(a1-2)Gal(b1-3)GlcNAc(b1-3)[Gal(b1-4)GlcNAc(b1-6)]Gal(b1-4)Glc
Outline: as §1

[12] = target: Fuc(a1-2)Gal(b1-3)GlcNAc(b1-3)[Neu5Ac(a2-6)Gal(b1-4)GlcNAc(b1-6)]Gal(b1-4)Glc
Outline: as §1

[13] = target: Fuc(a1-2)Gal(b1-3)GlcNAc6S
Outline: as §1

[14] = target: Fuc(a1-2)Gal(b1-3)[Fuc(a1-4)]GlcNAc
Outline: as §1

[15] = target: Fuc(a1-2)Gal(b1-3)[Fuc(a1-4)]GlcNAc(b1-2)Man(a1-3)[Fuc(a1-2)Gal(b1-3)[Fuc(a1-4)]GlcNAc(b1-2)Man(a1-3)]Man(b1-4)GlcNAc(b1-4)GlcNAc
Outline: as §1

[16] = target: Fuc(a1-2)Gal(b1-3)[Fuc(a1-4)]GlcNAc(b1-2)Man(a1-3)[Fuc(a1-2)Gal(b1-3)[Fuc(a1-4)]GlcNAc(b1-2)Man(a1-6)]Man(b1-4)GlcNAc(b1-4)[Fuc(a1-6)]GlcNAc(b1-4)[Fuc(a1-6)]GlcNAc
Outline: as §1

[17] = target: Fuc(a1-2)Gal(b1-3)[Fuc(a1-4)]GlcNAc(b1-3)[Fuc(a1-3)[Gal(b1-4)]GlcNAc(b1-6)]Gal(b1-4)Glc
Outline: as §1

[18] = target: Fuc(a1-2)Gal(b1-3)[Fuc(a1-4)]GlcNAc(b1-3)[Gal(b1-4)GlcNAc(b1-6)]Gal(b1-4)Glc
Outline: as §1

Fuc(a1-2)Gal(b1-4)Glc = target: Fuc(a1-2)Gal(b1-4)Glc
Outline: as §1

Fuc(a1-2)Gal(b1-4)Glc6S = target: Fuc(a1-2)Gal(b1-4)Glc6S
Outline: as §1

Fuc(a1-2)Gal(b1-4)GlcNAc = target: Fuc(a1-2)Gal(b1-4)GlcNAc
Outline: as §1

[19] = target: Fuc(a1-2)Gal(b1-4)GlcNAc(b1-2)Man
Outline: as §1

[20] = target: Fuc(a1-2)Gal(b1-4)GlcNAc(b1-2)Man(a1-3)[Fuc(a1-2)Gal(b1-4)GlcNAc(b1-2)Man(a1-6)]Man(b1-4)GlcNAc(b1-4)GlcNAc
Outline: as §1

[21] = target: Fuc(a1-2)Gal(b1-4)GlcNAc(b1-2)Man(a1-3)[Fuc(a1-2)Gal(b1-4)GlcNAc(b1-2)Man(a1-6)]Man(b1-4)GlcNAc(b1-4)[Fuc(a1-6)]GlcNAc
Outline: as §1

[22] = target: Fuc(a1-2)Gal(b1-4)GlcNAc(b1-2)[Fuc(a1-2)Gal(b1-4)GlcNAc(b1-4)]Man(a1-3)[Fuc(a1-2)Gal(b1-4)GlcNAc(b1-2)Man(a1-6)]Man(b1-4)GlcNAc(b1-4)GlcNAc
Outline: as §1

[23] = target: Fuc(a1-2)Gal(b1-4)GlcNAc(b1-3)Gal(b1-4)GlcNAc
Outline: as §1

[24] = target: Fuc(a1-2)Gal(b1-4)GlcNAc(b1-3)Gal(b1-4)GlcNAc(b1-2)Man(a1-3)[Fuc(a1-2)Gal(b1-4)GlcNAc(b1-3)Gal(b1-4)GlcNAc(b1-2)Man(a1-6)]Man(b1-4)GlcNAc(b1-4)GlcNAc
Outline: as §1

[25] = target: Fuc(a1-2)Gal(b1-4)GlcNAc(b1-3)Gal(b1-4)GlcNAc(b1-3)Gal(b1-4)GlcNAc
Outline: as §1

[26] = target: Fuc(a1-2)Gal(b1-4)GlcNAc(b1-3)GalNAc
Outline: as §1

[27] = target: Fuc(a1-2)Gal(b1-4)GlcNAc(b1-3)[Fuc(a1-2)Gal(b1-4)GlcNAc(b1-6)]GalNAc
Outline: as §1

[28] = target: Fuc(a1-2)Gal(b1-4)GlcNAc(b1-3)[Fuc(a1-3)[Gal(b1-4)]GlcNAc(b1-6)]Gal(b1-4)Glc
Outline: as §1

[29] = target: Fuc(a1-2)Gal(b1-4)GlcNAc(b1-6)GalNAc
Outline: as §1

[30] = target: Fuc(a1-2)Gal(b1-4)GlcNAc6S
Outline: as §1

[31] = target: Fuc(a1-2)Gal(b1-4)[Fuc(a1-3)]GlcNAc
Outline: as §1

[32] = target: Fuc(a1-2)Gal(b1-4)[Fuc(a1-3)]GlcNAc(b1-2)Man(a1-3)[Fuc(a1-2)Gal(b1-4)[Fuc(a1-3)]GlcNAc(b1-2)Man(a1-6)]Man(b1-4)GlcNAc(b1-4)[Fuc(a1-6)]GlcNAc
Outline: as §1

[33] = target: Fuc(a1-2)Gal(b1-4)[Fuc(a1-3)]GlcNAc(b1-2)[Fuc(a1-2)Gal(b1-4)[Fuc(a1-3)]GlcNAc(b1-4)]Man(a1-3)[Fuc(a1-2)Gal(b1-4)[Fuc(a1-3)]GlcNAc(b1-2)Man(a1-6)]Man(b1-4)GlcNAc(b1-4)GlcNAc
Outline: as §1

[34] = target: Fuc(a1-2)Gal(b1-4)[Fuc(a1-3)]GlcNAc(b1-3)Gal(b1-4)[Fuc(a1-3)]GlcNAc
Outline: as §1

[35] = target: Fuc(a1-2)Gal(b1-4)[Fuc(a1-3)]GlcNAc(b1-3)Gal(b1-4)[Fuc(a1-3)]GlcNAc(b1-3)Gal(b1-4)[Fuc(a1-3)]GlcNAc
Outline: as §1

[36] = target: Fuc(a1-2)Gal(b1-4)[Fuc(a1-3)]GlcNAc(b1-3)GalNAc
Outline: as §1

[37] = target: Fuc(a1-2)Gal(b1-4)[Fuc(a1-3)]GlcNAc(b1-3)[Neu5Ac(a2-6)Gal(b1-4)GlcNAc(b1-6)]Gal(b1-4)Glc
Outline: as §1

[38] = target: Fuc(a1-2)Gal3S(b1-4)GlcNAc
Outline: as §1

[39] = target: Fuc(a1-2)Gal6S(b1-3)GlcNAc
Outline: as §1

B1: GS13971A-bth-447-22-447 (Bacteroides thetaiotaomicron) (protein)
chain: EDVDNERSKGMFSASQSGFSTIEVYDLGPLNKIDLSIAKAGLEDTGGTVTFSVEQSLLDSLNNADGTSYQLLPPECYTIENATYSVSPGGDRRVTGGSLVYDPHKIYNLCGFDELKYVLPLRVSSTGTPMNSDRTATLYGFIVKEAIVRLASTGGDFVVEGGTTTSPMNLDTEISFENEWDLTTSFATKGADYVDNYNSANSTYYIPLPSDFYTLPDVTIAKGKTTGGSAISLLGETLPPGNYLLPVSLGGLSGQGDASINIDKETVANYFVIKQGGPINRDHWTVTANTEEKTGEVSAAYPHNGQTISLIDGEINTFWHSKWQGGEVAPPYEIILDMGKENSVSQLGLIARQNALTSMNLEIYAGDDGETWNLIGKYFFDGSIKTEQMVPVKACDARWIRIYIPTLGSGSSVGHLAEIYVYGTDK
- glycan array binding signal (z-score) (Fuc(a1-2)Gal): -0.389
- glycan array binding signal (z-score) (Fuc(a1-2)Gal(b1-3)GalNAc): -0.778
- glycan array binding signal (z-score) [1]: 0.174
- glycan array binding signal (z-score) [2]: -0.736
- glycan array binding signal (z-score) [3]: 0.302
- glycan array binding signal (z-score) [4]: -0.725
- glycan array binding signal (z-score) [5]: -0.611
- glycan array binding signal (z-score) (Fuc(a1-2)Gal(b1-3)GlcNAc): 0.107
- glycan array binding signal (z-score) [6]: -0.442
- glycan array binding signal (z-score) [7]: -0.945
- glycan array binding signal (z-score) [8]: -0.04
- glycan array binding signal (z-score) [9]: 0.789
- glycan array binding signal (z-score) [10]: -1.1
- glycan array binding signal (z-score) [11]: -0.354
- glycan array binding signal (z-score) [12]: 0.051
- glycan array binding signal (z-score) [13]: 1.19
- glycan array binding signal (z-score) [14]: 0.292
- glycan array binding signal (z-score) [15]: 0.881
- glycan array binding signal (z-score) [16]: 0.097
- glycan array binding signal (z-score) [17]: -0.966
- glycan array binding signal (z-score) [18]: -0.6
- glycan array binding signal (z-score) (Fuc(a1-2)Gal(b1-4)Glc): 0.068
- glycan array binding signal (z-score) (Fuc(a1-2)Gal(b1-4)Glc6S): 0.589
- glycan array binding signal (z-score) (Fuc(a1-2)Gal(b1-4)GlcNAc): -0.027
- glycan array binding signal (z-score) [19]: 0.155
- glycan array binding signal (z-score) [20]: 0.064
- glycan array binding signal (z-score) [21]: -1.32
- glycan array binding signal (z-score) [22]: 1.39
- glycan array binding signal (z-score) [23]: -0.714
- glycan array binding signal (z-score) [24]: 0.355
- glycan array binding signal (z-score) [25]: -0.965
- glycan array binding signal (z-score) [26]: -0.957
- glycan array binding signal (z-score) [27]: -0.527
- glycan array binding signal (z-score) [28]: 1.73
- glycan array binding signal (z-score) [29]: -0.021
- glycan array binding signal (z-score) [30]: -1.12
- glycan array binding signal (z-score) [31]: 0.714
- glycan array binding signal (z-score) [32]: 0.063
- glycan array binding signal (z-score) [33]: 0.844
- glycan array binding signal (z-score) [34]: -0.632
- glycan array binding signal (z-score) [35]: -0.677
- glycan array binding signal (z-score) [36]: 1.01
- glycan array binding signal (z-score) [37]: -0.385
- glycan array binding signal (z-score) [38]: -0.51
- glycan array binding signal (z-score) [39]: 1.21

Source: the supplement of paper PMC8728848
